No constants are given. Whether binding was seen depends on the method and setting. In cells and extracts the contact can be indirect. Binding calls can cover weak binding; strength is not graded here. Tags and fused reporters may be left off the sequences shown.

This experiment concerns the target LSM1 decapping factor, YFP fusion (Arabidopsis). The experiment can be described thus: co-IP.

B1: PAT1 (Protein Associated with Topoisomerase II), HA fusion (protein, UniProt Q0WPK4 1-793)
chain: MDAFGIGSSLNQAPVTQDLKKFGDNSTGNTMFDASQYAFFGNDVVEEVELGGLEEEDEILSFTGIAEDFSFDKEEVGDSRLLSDVDDLASTFSKLNREPDVYSNTGPITDRRSSQNSLAAEWTHGEELPNWYGRQILDSDAIKDDKVWSAQPFSSLDRVEQRIPDRTKLYPEPQRQLHQDHNQQQFSSEPILVPKSSFVSYPPPGSISPDQRLGHPNIPYQSGGPQMGSPNFSPFPNLQPQLPSMHHGSPQHTGNRPQFRPALPLNNLPPAQWMNRQNMHPGDSSGIMNNAMLQQPPHQNGLMPPQMQGSQNRLPHPMQPPLGHMPGMQPQLFNSHLSRSSSSGNYDGMLGFGDLREVRPGSGHGNRQNVRFPQQGFDAGVQRRYPFRSKYMSAGEIENILRMQLVATHSNDPYVDDYYHQACLAKKSAGAKLKHHFCPNHLRDLQQRARSNNEPHAFLQVEALGRVPFSSIRRPRPLLEVDPPNSAKFGNAEHKPTDKPLDQEPMLAARVYIEDGLCLLLEVDDIDRFLEFNQLQDGGHQLKQRRQALLQSLAVSLQLGDPLAKNGQSQSLDDFLFLRVISLPKGRKLLIRYLQLIFPGSDLMRIVCMAIFRHLRSLFGVLSSDPDIIKTTNKLATVINLCIQNMELGPVSTCLAAVSCSSEQAPLRPLGSPVGDGASTVLKSILDRASELIRANNFNNAGIALWRASFNEFFNMLMRYCISKYDSIMQSLQLPPHFATEISEEAAKAIVREMPIELLRSSFPHIDEQQKRILMEFLKRSMLGSQKTEPVLS
Consider B1, for which the binding entry is given as “binds”.

Source of the values: publication doi:10.1101/834465.
